Not every entry of the source has a single result; some have several. This is not the full list of results. The source may hold further records. The values listed for one entry differ for a reason that is not stated; they may come from other doses, times, organisms or constructs than stated.
Assay: Predicted clearance and half-life in man by allometric scaling of clearance in dogs
Experimental: The predicted clearance of LEO 134310 in man is 300 mL/min/kg (15-fold the liver blood flow) based on allometric scaling of clearance in dogs, using 0.75 as scaling factor. The corresponding predicted half-life is < 5 min, which is in line with the measured in vitro half-life of LEO 134310 in human blood (4.4 min) (Table 2).
To evaluate allometric scaling, actual clearance in dog and man were extracted from the literature for 6 ester drugs[27]–[38].

**Q.** For C[C@H](NC(=O)[C@H]1CCCO1)[C@H](Oc1ccc(C(=O)O[C@H]2CCCN(C(=O)[C@H]3COC(=O)C3)C2)cc1)c1ccc(C2CC2)cc1 [LEO 134310], which “Predicted clearance in man relative to liver blood flow” value is on record?
**A.** 15 fold and more than 10 fold

Source: article PMC8795149, “Characterization of a novel non-steroidal glucocorticoid receptor agonist optimized for topical treatment” (Scientific Reports, 2022)
